Assay results from paper PMC10716017.
Results are given in words; binding and its absence hold for the method and conditions named. Binding seen in cells or lysates may run through a third protein. Here binding means that the protein was enriched with, or labelled near, the bait; the list need not be complete.

Protein sequences, listed by entry. Tags and fused reporters are not part of them.
UniProt P17426: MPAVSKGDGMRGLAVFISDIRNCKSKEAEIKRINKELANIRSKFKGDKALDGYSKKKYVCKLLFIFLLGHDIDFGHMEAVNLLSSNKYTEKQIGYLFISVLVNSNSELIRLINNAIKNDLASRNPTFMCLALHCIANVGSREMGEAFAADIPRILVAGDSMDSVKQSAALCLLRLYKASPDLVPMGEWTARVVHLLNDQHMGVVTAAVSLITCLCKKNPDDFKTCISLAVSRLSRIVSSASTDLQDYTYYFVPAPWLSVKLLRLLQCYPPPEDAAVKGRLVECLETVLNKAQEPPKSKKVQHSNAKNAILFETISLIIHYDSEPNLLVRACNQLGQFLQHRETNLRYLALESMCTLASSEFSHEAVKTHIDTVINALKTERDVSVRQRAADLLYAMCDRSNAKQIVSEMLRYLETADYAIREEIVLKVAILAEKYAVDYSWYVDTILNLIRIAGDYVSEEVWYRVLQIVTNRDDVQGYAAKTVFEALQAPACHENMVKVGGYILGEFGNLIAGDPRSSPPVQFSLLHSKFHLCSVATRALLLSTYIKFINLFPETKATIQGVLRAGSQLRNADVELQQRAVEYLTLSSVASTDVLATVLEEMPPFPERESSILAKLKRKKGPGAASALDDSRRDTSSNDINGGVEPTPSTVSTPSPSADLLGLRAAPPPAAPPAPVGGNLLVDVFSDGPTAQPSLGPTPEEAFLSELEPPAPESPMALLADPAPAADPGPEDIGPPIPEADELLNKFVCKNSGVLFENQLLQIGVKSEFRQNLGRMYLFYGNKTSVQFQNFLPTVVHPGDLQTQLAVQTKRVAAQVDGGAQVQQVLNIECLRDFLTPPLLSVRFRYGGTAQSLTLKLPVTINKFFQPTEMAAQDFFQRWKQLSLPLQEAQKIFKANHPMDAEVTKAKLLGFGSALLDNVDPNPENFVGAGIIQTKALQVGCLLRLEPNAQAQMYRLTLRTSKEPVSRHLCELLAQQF
UniProt Q921G8: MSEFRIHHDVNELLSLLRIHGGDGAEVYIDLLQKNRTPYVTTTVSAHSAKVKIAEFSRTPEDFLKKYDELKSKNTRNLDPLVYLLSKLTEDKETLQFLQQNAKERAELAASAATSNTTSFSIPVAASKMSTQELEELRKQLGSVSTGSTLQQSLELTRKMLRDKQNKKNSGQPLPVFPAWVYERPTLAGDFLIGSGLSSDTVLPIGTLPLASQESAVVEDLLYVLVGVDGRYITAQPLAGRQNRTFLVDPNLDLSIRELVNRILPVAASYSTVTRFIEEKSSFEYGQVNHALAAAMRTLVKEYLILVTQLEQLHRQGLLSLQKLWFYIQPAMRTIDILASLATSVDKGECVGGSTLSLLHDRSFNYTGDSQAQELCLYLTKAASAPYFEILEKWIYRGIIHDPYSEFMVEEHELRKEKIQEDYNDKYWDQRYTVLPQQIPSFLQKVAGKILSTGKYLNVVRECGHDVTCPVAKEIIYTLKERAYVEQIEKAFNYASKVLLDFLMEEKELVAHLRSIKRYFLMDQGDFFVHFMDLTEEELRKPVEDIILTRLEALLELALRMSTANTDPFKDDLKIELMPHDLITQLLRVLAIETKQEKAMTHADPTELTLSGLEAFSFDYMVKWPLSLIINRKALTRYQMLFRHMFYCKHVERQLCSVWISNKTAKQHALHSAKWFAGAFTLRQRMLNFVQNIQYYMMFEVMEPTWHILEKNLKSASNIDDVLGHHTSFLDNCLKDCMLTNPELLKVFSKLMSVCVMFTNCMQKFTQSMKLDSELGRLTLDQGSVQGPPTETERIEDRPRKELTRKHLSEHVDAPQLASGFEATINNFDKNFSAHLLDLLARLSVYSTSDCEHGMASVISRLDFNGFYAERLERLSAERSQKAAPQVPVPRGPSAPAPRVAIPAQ
UniProt Q9D4F8: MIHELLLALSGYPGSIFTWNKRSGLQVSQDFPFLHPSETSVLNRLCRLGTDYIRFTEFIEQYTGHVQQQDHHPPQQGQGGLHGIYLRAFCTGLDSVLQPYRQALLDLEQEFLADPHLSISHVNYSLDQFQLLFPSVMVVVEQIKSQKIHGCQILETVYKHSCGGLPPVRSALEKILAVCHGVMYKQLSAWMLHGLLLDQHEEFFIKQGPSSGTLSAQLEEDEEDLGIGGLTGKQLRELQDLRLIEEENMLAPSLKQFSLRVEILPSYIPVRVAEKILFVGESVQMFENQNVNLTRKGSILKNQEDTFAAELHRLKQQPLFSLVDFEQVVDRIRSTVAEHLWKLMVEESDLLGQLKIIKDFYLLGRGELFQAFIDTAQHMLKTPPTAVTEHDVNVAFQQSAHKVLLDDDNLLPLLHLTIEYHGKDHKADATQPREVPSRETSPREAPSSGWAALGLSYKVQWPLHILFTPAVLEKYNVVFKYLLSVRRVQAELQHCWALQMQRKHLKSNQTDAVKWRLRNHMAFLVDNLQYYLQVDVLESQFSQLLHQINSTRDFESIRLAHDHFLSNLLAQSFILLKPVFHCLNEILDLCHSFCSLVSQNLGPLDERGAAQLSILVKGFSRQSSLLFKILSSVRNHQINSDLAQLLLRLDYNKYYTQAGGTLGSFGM
UniProt P58854: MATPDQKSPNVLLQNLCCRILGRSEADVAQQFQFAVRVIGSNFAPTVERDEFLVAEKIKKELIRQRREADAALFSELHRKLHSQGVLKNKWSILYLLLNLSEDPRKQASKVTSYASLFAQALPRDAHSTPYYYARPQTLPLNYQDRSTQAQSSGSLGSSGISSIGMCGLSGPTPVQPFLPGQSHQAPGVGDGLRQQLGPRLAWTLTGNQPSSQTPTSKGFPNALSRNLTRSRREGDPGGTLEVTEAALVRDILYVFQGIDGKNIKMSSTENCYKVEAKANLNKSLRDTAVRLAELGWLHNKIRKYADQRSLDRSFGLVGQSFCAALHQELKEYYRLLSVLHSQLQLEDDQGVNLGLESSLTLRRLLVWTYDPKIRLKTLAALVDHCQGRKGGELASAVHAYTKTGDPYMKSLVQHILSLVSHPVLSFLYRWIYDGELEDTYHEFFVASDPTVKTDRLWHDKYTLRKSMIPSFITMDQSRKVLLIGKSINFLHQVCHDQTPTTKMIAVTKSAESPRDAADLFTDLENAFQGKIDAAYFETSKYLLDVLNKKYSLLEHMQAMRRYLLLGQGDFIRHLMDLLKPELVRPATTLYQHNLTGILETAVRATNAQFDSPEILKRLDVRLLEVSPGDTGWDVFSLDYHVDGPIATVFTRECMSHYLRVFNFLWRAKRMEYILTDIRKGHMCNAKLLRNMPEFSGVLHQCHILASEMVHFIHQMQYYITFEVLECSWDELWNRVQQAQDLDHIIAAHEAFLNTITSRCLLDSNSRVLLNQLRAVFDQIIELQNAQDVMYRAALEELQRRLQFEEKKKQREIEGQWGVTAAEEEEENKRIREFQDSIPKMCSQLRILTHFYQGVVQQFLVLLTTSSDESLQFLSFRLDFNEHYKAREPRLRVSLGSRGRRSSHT

Target: AP-2α subunit of the AP-2 complex (mouse (endogenous in cortex)) (UniProt P17426)
Test: affinity purification with mass spectrometry; AP-2α antibody on Dynabeads Protein G as bait, IgG as control; embryonic mouse cortex (E12.5 in the results, E14-E16 in the methods) homogenised in Co-IP buffer (50 mM Tris-HCl pH 7.4, 100 mM NaCl, 1% NP-40, 2 mM MgCl2); label-free quantification, N = 5

| Molecule | binding |
| --- | --- |
| GCP2 component of γ-TuRC (from UniProt Q921G8 1-905) | binds |
| GCP4 component of γ-TuRC (from UniProt Q9D4F8 1-667) | binds |
| GCP3 component of γ-TuRC (from UniProt P58854 1-905) | binds |
| AP180 (protein, UniProt Q61548 1-901) MSGQTLTDRIAAAQYSVTGSAVARAVCKATTHEVMGPKKKHLDYLIQATNETNVNIPQMADTLFERATNSSWVVVFKALVTTHHLMVHGNERFIQYLASRNTLFNLSNFLDKSGSHGYDMSTFIRRYSRYLNEKAFSYRQMAFDFARVKKGADGVMRTMVPEKLLKSMPILQGQIDALLEFDVHPNELTNGVINAAFMLLFKDLIKLFACYNDGVINLLEKFFEMKKGQCKDALEIYKRFLTRMTRVSEFLKVAEQVGIDKGDIPDLTQAPSSLMETLEQHLNTLEGKKPGNNEGSGAPSPLSKSSPATTVTSPNSTPAKTIDTSPPVDIFATASAAAPVSSAKPSSDLLDLQPDFSGAAAGAAAPVVPPSGGATAWGDLLGEDSLAALSSVPCEAPISDPFAPEPSPPTTTTEPASASASTTTAVTAVTTEVDLFGDAFAASPGEAPAASEGATAPATPAPVAAALDACSGNDPFAPSEGSAEAAPELDLFAMKPPETSAPVVTPTASTAPPVPATAPSPAPTAVAATAATTTAAAAATTTATTSAAAATTAAAPPALDIFGDLFDSAPEVAAAPKPDAAPSIDLFGTDAFSSPPRGASPVPESSLTADLLSVDAFAAPSPASTASPAKAESSGVIDLFGDAFGSGASETQPAPQAVSSSSASADLLAGFGGSFMAPSTTPVTPAQNNLLQPSFEAAFGTTPSTSSSSSFDPSVFDGLGDLLMPTMAPSGQPAPVSMVPPSPAMAASKGLGSDLDSSLASLVGNLGISGTTSKKGDLQWNAGEKKLTGGANWQPKVTPATWSAGVPPQGTVPPTSSVPPGAGAPSVGQPGAGFGMPPSGTGMTMMSQQPVMFAQPMMRPPFGAAAVPGTQLSPSPTPATQSPKKPPAKDPLADLNIKDFL | binds |
| HIP1 (protein, UniProt Q8VD75 1-1029) MDRMASSMKQVSNPLPKVLSRRGVGAGMEAAERESFERTQTVSVNKAINTQEVAVKEKHARTCILGTHHEKGAQTFWSVVNRLPLSSNAMLCWKFCHVFHKLLRDGHPNVLKDSLRYKNELSDMSRMWGHLSEGYGQLCSIYLKLLRTRMEYHTKNPRFPGNLQMSDRQLDEAGESDVNNFFQLTVEMFDYLECELNLFQTVFNSLDMSRSVSVTTAGQCRLAPLIQVILDCSHLYDYTVKLLFKLHSCLPADTLQGHRDRFMEQFTKLKDLFQRSSNLQYFKRLIQIPQLPENPPNFLRASALSEHISPVVVIPAEVSSPDSEPVLEKDDLMDMDASQQTLFDNKFDDVFGSSLSSDPFNFNNQNGVNKDEKDHLIERLYREISGLTGQLDNMKIESQRAMLQLKGRVSELEAELAEQQHLGRQAMDDCEFLRTELDELKRQREDTEKAQRSLTEIERKAQANEQRYSKLKEKYSELVQNHADLLRKNAEVTKQVSVARQAQVDLEREKKELADSFARTQEQQDVLENLKHELATSRQELQVLHSNLETSAQSEAKWLTQIAELEKEQGSLATVAAQREEELSALRDQLESTQIKLAGAQESMCQQVKDQRKTLLAGIRKAAEREIQEALSQLEEPTLISCAGSTDHLLSKVSSVSSCLEQLEKNGSQYLACPEDISELLHSITLLAHLTGDTIIQGSATSLRAPPEPADSLTEACRQYGRETLAYLSSLEEEGTMENADVTALRNCLSRVKTLGEELLPRGLDIKQEELGDLVDKEMAATSAAIEAATTRIEEILSKSRAGDTGVKLEVNERILGSCTSLMQAIKVLVVASKDLQKEIVESGRGTASPKEFYAKNSRWTEGLISASKAVGWGATIMVDAADLVVQGKGKFEELMVCSREIAASTAQLVAASKVKANKGSLNLTQLQQASRGVNQATAAVVASTISGKSQIEETDSMDFSSMTLTQIKRQEMDSQVRVLELENDLQKERQKLGELRKKHYELAGVAEGWEEGTEASPSTVQEAIPDKE | binds |
| GCP8 (also known as MZT2) (protein, UniProt Q9CQ25 1-159) MAAAAAAAGGAALAVSTGLETATLQKLALRRKKVLGAEEMELYELAQAAGAAIDPDVFKILVDLLNLNVAPLAVFQMLKSMCAGQRLASDPQDSVPISLSTSTSETRGRNRGGPILGNVTISAERGSRERPIQRMPRQPSATRLPKVGGSGKSNSRSSP | binds |
